Data reported in the supplement of paper PMC5407854, “Inhibitor of ppGalNAc-T3-mediated O-glycosylation blocks cancer cell invasiveness and lowers FGF23 levels” (eLife, 2017).
The other results are listed elsewhere or left out. Small differences around the control level are noise.

Assays:
ppGalNAc-T3 sensor = experiment: T3 sensor activation Q score (MG/GFP ratio z-score vs DMSO controls) (SD units); higher = more sensor activation (inhibition of ppGalNAc-T3 glycosylation); details: HEK293 sensor cells; 10 µM; 6 h
Procedure: (§1)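 Cells were treated with compound at 10 uM for 6 h, then MG/GFP ratio was read by flow cytometry (10,000 cells per well, duplicate wells). Q = (R - R_neg)/SD_neg relative to DMSO vehicle controls; the signal rises when the glycosyltransferase is inhibited.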

ppGalNAc-T2 sensor = experiment: T2 sensor activation Q score (MG/GFP ratio z-score vs DMSO controls) (SD units); higher = more sensor activation (inhibition of ppGalNAc-T2 glycosylation); details: HEK293 sensor cells; 10 µM; 6 h
Procedure: as §1

Structure (SMILES) | T3 sensor activation Q score (ppGalNAc-T3 sensor) | T2 sensor activation Q score (ppGalNAc-T2 sensor)
COc1ccc(CN2CCC(O)CC2)c(C)c1C | 0.385 | -1
COc1ccccc1N1CCN(S(=O)(=O)c2ccc(Cl)cc2)CC1 | 0.15 | 1.38
NNC(=O)C(O)c1ccc(Cl)cc1 (stereo not drawn) | -0.13 | -0.25
CCCCC1CCC(C(=O)NN)CC1 (stereo not drawn) | 0.01 | -0.035
Cc1ccc(C(=O)/C=C/c2cccc(F)c2)o1 | 0.6 | 1.75
CCN(CC)CCN(C)Cc1cccc(C)c1 | 0.765 | -0.54
O=S(=O)(NC1CCCCC1)c1cccc2nsnc12 | 1.4 | -0.71
CC(=O)Nc1ccc(S(=O)(=O)O)cc1 | -0.185 | -1.91
O=[N+]([O-])c1ccc(CN2CCN(c3ccccc3Cl)CC2)o1 | -0.255 | 0.895
NC(=O)CN1CC(=O)NC(=O)C1 | -0.24 | 1.15
O=C(O)CCCC[C@H]1SC[C@H]2NC(=O)N[C@H]21 | 0.945 | -0.145
CC(C)c1ccc(NC(=O)c2cccs2)cc1 | -0.075 | 0.585
O=C(NCc1ccncc1)c1cccs1 | -0.595 | -0.91
CCc1cc(-c2n[nH]c(C)c2-c2ccccc2)c(O)cc1O | 0.01 | -0.365
C(=C\c1ccccc1)/CN1CCN(C2C3CC4CC(C3)CC2C4)CC1 (stereo not drawn) | 0.38 | -0.1
CCN(CC)C(=O)C1CCCN(Cc2ccccc2F)C1 (stereo not drawn) | -0.3 | 0.145
O=C(c1cccc(F)c1)N1CCOCC1 | 0.18 | -1.21
Cc1cc(=O)[nH]c(N2CCCCC2)n1 | -0.625 | -0.33
O=C1CC(N2CCN(c3ccc(F)cc3)CC2)C(=O)N1c1cccc(Cl)c1 (stereo not drawn) | 0.15 | -0.22
Clc1ccc(N2CCN(Cc3ccsc3)CC2)cc1 | 0.76 | -0.455
COc1cc(OC)c(OC)cc1CN1CCN(c2cccc(C)c2C)CC1 | -0.63 | 0.325
O=C(O)CNC(=O)c1ccccc1Cl | 0.11 | -0.125
Cc1ccc(S(=O)(=O)c2ccc(Oc3cccc(N)c3)cc2)cc1 | 0.75 | 0.49
O=C(CCN1C(=O)c2ccccc2C1=O)N1CCCCCC1 | 1.92 | 0.875
CCN1CCN(C/C=C/c2ccccc2[N+](=O)[O-])CC1 | 0.265 | 0.225

Structure (SMILES) | T3 sensor activation Q score (ppGalNAc-T3 sensor) | T2 sensor activation Q score (ppGalNAc-T2 sensor)
O=S(=O)(c1ccc(Cl)cc1)N1CCOCC1 | 0.9 | -0.58
Cc1ccc(OCC(O)CNC(C)C)cc1 (stereo not drawn) | 0.305 | -0.275
CCN(CC)c1ccc(Nc2nc(-c3ccccn3)cs2)cc1 | -0.325 | -0.1
Cc1cc(N2CCOCC2)nc(-c2ccccc2O)n1 | -0.06 | 2.66
c1cc(-c2nnc(-c3ccncc3)o2)ccn1 | 0.365 | -0.72
Cc1nc(C)c(-c2cc(C)c3c(C)nc(C)nc3n2)c(N)n1 | 1.4 | -0.325
CCC1(CC)C(=O)NC(=O)N=C1N | 2.45 | 1.57
Cc1ccc(NC(=O)NC(C)(C)C)cc1 | 1.12 | -0.81
O=[N+]([O-])c1cccc(CN2CCC(Cc3ccccc3)CC2)c1 | -0.355 | -0.55
CC1CCCC(C)N1C(=O)Nc1ccccc1 (stereo not drawn) | -0.495 | 0.35
CN(C(=O)CCC(=O)O)c1ccccc1C(=O)O | -0.435 | 0.52
COc1cc(OC)c(OC)cc1CN1CCN(c2cc(C)ccc2C)CC1 | 0.765 | 0.64
O=C(O)c1ccc(S(=O)(=O)N2CCCC2)cc1 | 0.9 | -0.335
CCN(CC)C(=O)C1CCCN(Cc2ccc(F)cc2F)C1 (stereo not drawn) | 0.15 | -0.18
Cc1cc(Cl)ccc1NCC(=O)NN | -0.42 | 0.875
Cc1ccc(O)c(-c2[nH]ncc2C(=O)c2ccccc2)c1 | 0.085 | 0.75
COc1ccc(CN2CCN(c3ccc(F)cc3)CC2)c(OC)c1C | 0.435 | 0.21
NS(=O)(=O)c1ccc(C23CC4CC(CC(C4)C2)C3)cc1 | 2.9 | 1.34
CCN(CC)C(=O)C1CCCN(Cc2cccc(Cl)c2)C1 (stereo not drawn) | 0.34 | -0.275
c1ccc(-c2cc3c(ccc4nonc43)nn2)cc1 | 1.45 | -0.905
CCOC(=O)N1CCN(Cc2ccccc2F)CC1 | 0.085 | 0.425
Cc1nc(NN)c2c3c(sc2n1)CCC3 | 1 | -0.365
CCN(Cc1ccccc1)Cc1c(F)cccc1F | 0.365 | -0.365
Cc1ccc(OCCCn2ccnc2)cc1 | -0.22 | -0.485

Single records, from the list above. Order of values: T3 sensor activation Q score (ppGalNAc-T3 sensor)	T2 sensor activation Q score (ppGalNAc-T2 sensor)
`Cc1cc(=O)[nH]c(N2CCCCC2)n1` reads -0.625	-0.33
`O=S(=O)(NC1CCCCC1)c1cccc2nsnc12` reads 1.4	-0.71
`COc1ccccc1N1CCN(S(=O)(=O)c2ccc(Cl)cc2)CC1` reads 0.15	1.38
